Measured values from US20030191084A1.
These are yes or no findings as the source states them, for the method shown. Some results given as binding are weak or reduced against the parent protein; the word gives no strength.

By UniProt entry, the sequences of proteins in these tests, tags left out. Where a name states a change or a piece, a line headed by the entry shows the natural chain unless it says otherwise. Residues count along the entry.
UniProt P02745: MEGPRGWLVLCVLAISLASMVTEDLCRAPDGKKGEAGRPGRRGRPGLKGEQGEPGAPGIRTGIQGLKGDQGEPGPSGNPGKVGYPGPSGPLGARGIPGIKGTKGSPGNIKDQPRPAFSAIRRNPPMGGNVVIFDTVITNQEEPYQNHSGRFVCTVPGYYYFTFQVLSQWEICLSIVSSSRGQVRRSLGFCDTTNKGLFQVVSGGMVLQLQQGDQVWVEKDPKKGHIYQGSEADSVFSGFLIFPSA
UniProt P02743, residues 20-223: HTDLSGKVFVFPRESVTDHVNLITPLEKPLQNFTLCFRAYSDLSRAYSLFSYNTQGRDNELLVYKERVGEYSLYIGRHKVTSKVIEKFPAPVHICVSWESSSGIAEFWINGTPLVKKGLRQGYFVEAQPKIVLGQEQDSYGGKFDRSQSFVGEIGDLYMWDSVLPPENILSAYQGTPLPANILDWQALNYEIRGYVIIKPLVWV

Molecular target: Complement System Protein C1q (UniProt P02745)
Assay: nitrocellulose filter assay; protein competes with labelled 2'-NH2 RNA ligand #50 for C1q

- binding: binds
Substance: serum amyloid protein (SAP) (from UniProt P02743 20-223) (other; other documents disagree on this pair)
